Test results taken from the supplement of paper PMC4604168 (melanoma cell lines).
Some of the results follow. Single values are uncertain, as repeats are few or missing.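 The apoptosis fraction was the count of cleaved-PARP antibody-stained nuclei relative to all DNA-stained nuclei, imaged in 1,536-well plates. Screening doses were set so most cells survived, and baseline and induced cleaved-PARP levels vary greatly across cell lines.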

Columns and labels:
Assay in all cases: cleaved PARP positive nuclei fraction relative to DMSO control; melanoma cells; higher = more apoptosis
Settings in all cases: library dose: low library concentration; 72 h
MZ2-MEL = system: MZ2-MEL
MeWo = system: MeWo
RPMI7951 = system: RPMI7951
RVH-421 = system: RVH-421
SkMel28 = system: SkMel28
SkMel30 = system: SkMel30
UACC62 = system: UACC62
SkMel5 = system: SkMel5
UACC257 = system: UACC257

| SMILES | cleaved PARP positive nuclei fraction (MZ2-MEL) [%] | cleaved PARP positive nuclei fraction (MeWo) [%] | cleaved PARP positive nuclei fraction (RPMI7951) [%] | cleaved PARP positive nuclei fraction (RVH-421) [%] | cleaved PARP positive nuclei fraction (SkMel28) [%] | cleaved PARP positive nuclei fraction (SkMel30) [%] | cleaved PARP positive nuclei fraction (UACC62) [%] | cleaved PARP positive nuclei fraction (SkMel5) [%] | cleaved PARP positive nuclei fraction (UACC257) [%] |
| --- | --- | --- | --- | --- | --- | --- | --- | --- | --- |
| COc1cc([C@@H]2c3cc4c(cc3[C@@H](O[C@@H]3O[C@@H]5CO[C@@H](C)O[C@H]5[C@H](O)[C@H]3O)[C@H]3COC(=O)[C@H]23)OCO4)cc(OC)c1O [etoposide] + C[C@]12O[C@H](C[C@]1(O)CO)n1c3ccccc3c3c4c(c5c6ccccc6n2c5c31)CNC4=O [Lestaurtinib] (first compound 0.02 µM, partner dose 0.004 µM) | 160 | 58.4 | 31.3 | 206 | 65.3 | 79.4 | 52.1 |  |  |
| CC1(C)CCC(c2ccc(Cl)cc2)=C(CN2CCN(c3ccc(C(=O)NS(=O)(=O)c4ccc(N[C@H](CCN5CCOCC5)CSc5ccccc5)c(S(=O)(=O)C(F)(F)F)c4)cc3)CC2)C1 + C[C@]12O[C@H](C[C@]1(O)CO)n1c3ccccc3c3c4c(c5c6ccccc6n2c5c31)CNC4=O [Lestaurtinib] (first compound 0.4 µM, partner dose 0.004 µM) | 202 | 253 | 104 | 59.7 | 73.8 | 68.1 | 39.9 |  |  |
| Cn1sc(=O)n(Cc2ccccc2)c1=O + C[C@]12O[C@H](C[C@]1(O)CO)n1c3ccccc3c3c4c(c5c6ccccc6n2c5c31)CNC4=O [Lestaurtinib] (first compound 0.4 µM, partner dose 0.004 µM) | 69.5 | 106 | 37.4 | 83.6 | 54.3 | 60.6 | 74.9 |  |  |
| C[C@]12O[C@H](C[C@]1(O)CO)n1c3ccccc3c3c4c(c5c6ccccc6n2c5c31)CNC4=O [Lestaurtinib] + Clc1ccc(Nc2nnc(Cc3ccncc3)c3ccccc23)cc1 [vatalanib] (first compound 0.004 µM, partner dose 2 µM) | 128 | 49 | 99.5 | 41.4 | 115 | 54.9 | 136 |  |  |
| C[C@]12O[C@H](C[C@]1(O)CO)n1c3ccccc3c3c4c(c5c6ccccc6n2c5c31)CNC4=O [Lestaurtinib] + COCC[n+]1c2c(n(Cc3cnccn3)c1C)C(=O)c1ccccc1C2=O [YM155] (first compound 0.004 µM, partner dose 0.0004 µM) | 120 | 31.8 | 30.8 | 47.8 | 93.3 | 13.5 | 30 |  |  |
| Cn1cc(C2=C(c3cn(C4CCN(Cc5ccccn5)CC4)c4ccccc34)C(=O)NC2=O)c2ccccc21 [Enzastaurin] + C[C@]12O[C@H](C[C@]1(O)CO)n1c3ccccc3c3c4c(c5c6ccccc6n2c5c31)CNC4=O [Lestaurtinib] (first compound 0.8 µM, partner dose 0.004 µM) | 35.6 | 61.9 | 48.7 | 52.8 | 91.2 | 276 | 154 |  |  |
| C[C@]12O[C@H](C[C@]1(O)CO)n1c3ccccc3c3c4c(c5c6ccccc6n2c5c31)CNC4=O [Lestaurtinib] + CO[C@H]1C[C@@H]2CC[C@@H](C)[C@@](O)(O2)C(=O)C(=O)N2CCCC[C@H]2C(=O)O[C@H]([C@H](C)C[C@@H]2CC[C@@H](OCCO)[C@H](OC)C2)CC(=O)[C@H](C)/C=C(\C)[C@@H](O)[C@@H](OC)C(=O)[C@H](C)C[C@H](C)/C=C/C=C/C=C/1C [everolimus] (first compound 0.004 µM, partner dose 0.02 µM) | 95.5 | 124 | 86.5 | 44.5 | 161 | 75.7 | 91.5 |  |  |
| CO[C@@H]1[C@H](N(C)C(=O)c2ccccc2)C[C@H]2O[C@]1(C)n1c3ccccc3c3c4c(c5c6ccccc6n2c5c31)C(=O)NC4 [Midostaurin] + Cc1cc(SCc2sc(-c3ccc(C(F)(F)F)c(F)c3)nc2C)ccc1OCC(=O)O [GW0742] (first compound 0.08 µM, partner dose 2 µM) | 66.3 | 63 | 200 | 120 | 253 | 101 | 157 | 97.5 | 104 |
| C[C@]12O[C@H](C[C@]1(O)CO)n1c3ccccc3c3c4c(c5c6ccccc6n2c5c31)CNC4=O [Lestaurtinib] + CC(C)(C)c1cnc(CSc2cnc(NC(=O)C3CCNCC3)s2)o1 [SNS-032] (first compound 0.004 µM, partner dose 0.01 µM) | 152 | 101 | 58.2 | 51.3 | 185 | 57.5 | 60.4 | 169 | 43.2 |
| C[C@]12O[C@H](C[C@]1(O)CO)n1c3ccccc3c3c4c(c5c6ccccc6n2c5c31)CNC4=O [Lestaurtinib] + CNC(=O)c1cc(Oc2ccc(NC(=O)Nc3ccc(Cl)c(C(F)(F)F)c3)cc2)ccn1 [sorafenib] (first compound 0.004 µM, partner dose 0.4 µM) | 131 | 111 | 190 | 71.2 | 209 | 93.3 | 156 |  |  |
| C[C@]12O[C@H](C[C@]1(O)CO)n1c3ccccc3c3c4c(c5c6ccccc6n2c5c31)CNC4=O [Lestaurtinib] + NCC(=O)Nc1ccc(-n2nc(C(F)(F)F)cc2-c2ccc3c(ccc4ccccc43)c2)cc1 [OSU03012] (first compound 0.004 µM, partner dose 1 µM) | 97.3 | 117 | 80.1 | 73.3 | 90 | 110 | 113 | 49.6 | 150 |
| Cc1cn(-c2cc(NC(=O)c3ccc(C)c(Nc4nccc(-c5cccnc5)n4)c3)cc(C(F)(F)F)c2)cn1 [nilotinib] + C[As](C)SC[C@H](NC(=O)CC[C@H](N)C(=O)O)C(=O)NCC(=O)O [Darinaparsin] (first compound 0.2 µM, partner dose 0.4 µM) | 69 | 38.1 | 225 | 22.4 | 42.1 | 162 | 136 |  |  |

Two entries from above, tab-delimited.
SMILES	cleaved PARP positive nuclei fraction (MZ2-MEL) [%]	cleaved PARP positive nuclei fraction (MeWo) [%]	cleaved PARP positive nuclei fraction (RPMI7951) [%]	cleaved PARP positive nuclei fraction (RVH-421) [%]	cleaved PARP positive nuclei fraction (SkMel28) [%]	cleaved PARP positive nuclei fraction (SkMel30) [%]	cleaved PARP positive nuclei fraction (UACC62) [%]	cleaved PARP positive nuclei fraction (SkMel5) [%]	cleaved PARP positive nuclei fraction (UACC257) [%]
COc1cc([C@@H]2c3cc4c(cc3[C@@H](O[C@@H]3O[C@@H]5CO[C@@H](C)O[C@H]5[C@H](O)[C@H]3O)[C@H]3COC(=O)[C@H]23)OCO4)cc(OC)c1O [etoposide] + C[C@]12O[C@H](C[C@]1(O)CO)n1c3ccccc3c3c4c(c5c6ccccc6n2c5c31)CNC4=O [Lestaurtinib] (first compound 0.02 µM, partner dose 0.004 µM)	160	58.4	31.3	206	65.3	79.4	52.1		
Cn1sc(=O)n(Cc2ccccc2)c1=O + C[C@]12O[C@H](C[C@]1(O)CO)n1c3ccccc3c3c4c(c5c6ccccc6n2c5c31)CNC4=O [Lestaurtinib] (first compound 0.4 µM, partner dose 0.004 µM)	69.5	106	37.4	83.6	54.3	60.6	74.9		
